Measured values published in US20160002322A1.
These are yes or no findings as the source states them, for the method shown. Some results given as binding are weak or reduced against the parent protein; the word gives no strength.

By UniProt entry, the sequences of proteins in these tests, tags left out.
UniProt O14894: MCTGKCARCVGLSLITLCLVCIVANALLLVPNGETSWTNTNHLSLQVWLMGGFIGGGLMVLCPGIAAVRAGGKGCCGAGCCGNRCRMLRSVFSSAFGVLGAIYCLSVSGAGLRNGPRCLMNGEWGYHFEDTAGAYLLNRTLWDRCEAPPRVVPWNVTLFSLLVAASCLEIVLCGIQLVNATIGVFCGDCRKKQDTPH

Columns and labels:
[1] = biological target: human TM4SF5 (transmembrane 4 superfamily member 5 protein) (human) (UniProt O14894); assay: immunohistochemistry of human HCC tissue arrays
[2] = biological target: human TM4SF5 (transmembrane 4 superfamily member 5 protein) (human) (UniProt O14894); assay: immunohistochemistry of Huh-7 xenograft tumour tissue
[3] = biological target: human TM4SF5 (transmembrane 4 superfamily member 5 protein) (human) (UniProt O14894); assay: immunohistochemistry of HT-29 xenograft tumour tissue
mouse TM4SF5 (mouse) [4] = biological target: mouse TM4SF5 (mouse) (UniProt Q91XF2); assay: immunohistochemistry of CT-26 allograft tumour tissue
mouse TM4SF5 (mouse) [5] = biological target: mouse TM4SF5 (mouse) (UniProt Q91XF2); assay: immunohistochemistry of BNL-HCC allograft tumour tissue
[6] = biological target: human TM4SF5 (transmembrane 4 superfamily member 5 protein) (human) (UniProt O14894); assay: immunohistochemistry of human colon cancer tissue arrays
mouse TM4SF5 (mouse) [7] = biological target: mouse TM4SF5 (mouse) (UniProt Q91XF2); assay: in vivo biodistribution imaging in tumour-bearing BALB/c mice
mouse TM4SF5 (mouse) [8] = biological target: mouse TM4SF5 (mouse) (UniProt Q91XF2); assay: confocal microscopy of frozen HCC tumour sections after i.p. injection of labelled antibody; in vivo imaging
mouse TM4SF5 (mouse) [9] = biological target: mouse TM4SF5 (mouse) (UniProt Q91XF2); assay: confocal microscopy of frozen BNL-HCC tumour sections taken 72 hr after i.p. injection of DyLight 750-labelled antibody into tumour-bearing BALB/c mice

Measured: binding

B1: anti-TM4SF5 monoclonal antibody 2D4-18 (antibody, V domains shown)
VH: GDLVKPGGSLKLSCAASGFTFSSYGMSWVRQTPDKRLEWVATISSGGGYTYYPDSVKGRFTISRDNAKNTLYLQMRSLKSEDTAMYYCARHEGFTTYYFDYWGQGTTLTVSS
VL: LSLPVSLGDQASISCRSSQSILHSSGNTYLEWYLQKPGQSPKLLIYKVSNRFSGVPDRFSGSGSGTDFTLKISRVEAEDLGVYYCFQGSHVPFTFGSGTKLEIKR
binds: all assays above
